Assay results reported in the supplement of paper PMC10849652.
The list shows a part of the results.

Chains of the proteins cited; added tags and fusions are not shown. Lines headed by an entry give the natural chain unless they say otherwise; changes in a name come on top.
UniProt Q9HB90, whole entry, looked up: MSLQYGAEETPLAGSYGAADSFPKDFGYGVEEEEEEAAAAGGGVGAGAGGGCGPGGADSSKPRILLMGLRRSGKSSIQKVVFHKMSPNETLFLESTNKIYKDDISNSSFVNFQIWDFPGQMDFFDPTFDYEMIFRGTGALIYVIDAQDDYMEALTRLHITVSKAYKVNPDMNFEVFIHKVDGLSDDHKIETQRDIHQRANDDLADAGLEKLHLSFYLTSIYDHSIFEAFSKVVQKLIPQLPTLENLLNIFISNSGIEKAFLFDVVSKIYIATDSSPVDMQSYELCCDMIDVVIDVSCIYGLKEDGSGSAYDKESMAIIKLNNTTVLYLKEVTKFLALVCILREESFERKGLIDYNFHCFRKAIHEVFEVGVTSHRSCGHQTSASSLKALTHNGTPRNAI
UniProt P10155: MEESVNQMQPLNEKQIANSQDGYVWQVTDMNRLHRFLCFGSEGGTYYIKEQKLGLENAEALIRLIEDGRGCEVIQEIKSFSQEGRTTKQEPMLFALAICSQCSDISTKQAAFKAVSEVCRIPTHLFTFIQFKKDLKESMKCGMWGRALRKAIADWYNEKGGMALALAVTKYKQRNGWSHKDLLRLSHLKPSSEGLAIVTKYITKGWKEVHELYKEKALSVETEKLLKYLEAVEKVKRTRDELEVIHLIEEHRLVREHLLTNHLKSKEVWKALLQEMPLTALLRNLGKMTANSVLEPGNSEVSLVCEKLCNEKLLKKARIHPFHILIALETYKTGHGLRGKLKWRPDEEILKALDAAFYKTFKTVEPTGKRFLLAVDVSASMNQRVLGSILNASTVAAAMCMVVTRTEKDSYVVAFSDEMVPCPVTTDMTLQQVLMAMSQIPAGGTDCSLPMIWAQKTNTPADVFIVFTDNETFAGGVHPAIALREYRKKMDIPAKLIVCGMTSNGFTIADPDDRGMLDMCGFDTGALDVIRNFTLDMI
UniProt Q13464: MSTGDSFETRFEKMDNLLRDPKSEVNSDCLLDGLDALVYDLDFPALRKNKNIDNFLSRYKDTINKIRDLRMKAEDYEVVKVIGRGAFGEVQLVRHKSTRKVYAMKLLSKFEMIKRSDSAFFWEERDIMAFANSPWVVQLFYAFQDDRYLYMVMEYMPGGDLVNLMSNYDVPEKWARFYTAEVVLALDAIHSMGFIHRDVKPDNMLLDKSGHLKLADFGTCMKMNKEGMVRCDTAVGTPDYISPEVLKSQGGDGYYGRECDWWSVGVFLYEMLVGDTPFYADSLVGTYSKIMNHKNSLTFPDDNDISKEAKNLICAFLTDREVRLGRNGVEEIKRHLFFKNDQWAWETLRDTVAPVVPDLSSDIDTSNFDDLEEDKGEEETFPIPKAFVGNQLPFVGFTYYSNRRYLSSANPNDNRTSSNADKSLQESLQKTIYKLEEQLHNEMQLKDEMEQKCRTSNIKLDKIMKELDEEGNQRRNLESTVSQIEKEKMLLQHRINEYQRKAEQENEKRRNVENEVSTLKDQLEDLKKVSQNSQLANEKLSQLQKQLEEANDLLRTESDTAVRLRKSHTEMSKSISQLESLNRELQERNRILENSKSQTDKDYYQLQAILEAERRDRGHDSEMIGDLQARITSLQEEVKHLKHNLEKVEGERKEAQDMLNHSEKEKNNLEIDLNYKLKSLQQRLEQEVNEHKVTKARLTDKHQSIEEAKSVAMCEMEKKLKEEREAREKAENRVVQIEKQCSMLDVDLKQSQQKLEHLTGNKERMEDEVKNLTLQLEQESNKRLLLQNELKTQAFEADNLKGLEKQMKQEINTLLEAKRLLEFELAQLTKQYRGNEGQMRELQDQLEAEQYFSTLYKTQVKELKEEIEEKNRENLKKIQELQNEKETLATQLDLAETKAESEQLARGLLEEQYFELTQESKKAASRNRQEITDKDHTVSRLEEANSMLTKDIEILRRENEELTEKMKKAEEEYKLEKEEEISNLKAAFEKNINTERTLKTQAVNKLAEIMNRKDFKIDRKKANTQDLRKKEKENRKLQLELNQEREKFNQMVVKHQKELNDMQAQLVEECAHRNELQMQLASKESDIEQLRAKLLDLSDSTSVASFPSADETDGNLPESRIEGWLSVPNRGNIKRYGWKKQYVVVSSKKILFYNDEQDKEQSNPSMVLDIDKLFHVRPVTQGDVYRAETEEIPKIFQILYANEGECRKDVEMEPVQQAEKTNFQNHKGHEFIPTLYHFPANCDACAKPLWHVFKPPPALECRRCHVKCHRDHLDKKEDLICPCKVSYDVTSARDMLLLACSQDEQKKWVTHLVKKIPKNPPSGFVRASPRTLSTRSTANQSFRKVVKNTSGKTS
UniProt Q9H4A4: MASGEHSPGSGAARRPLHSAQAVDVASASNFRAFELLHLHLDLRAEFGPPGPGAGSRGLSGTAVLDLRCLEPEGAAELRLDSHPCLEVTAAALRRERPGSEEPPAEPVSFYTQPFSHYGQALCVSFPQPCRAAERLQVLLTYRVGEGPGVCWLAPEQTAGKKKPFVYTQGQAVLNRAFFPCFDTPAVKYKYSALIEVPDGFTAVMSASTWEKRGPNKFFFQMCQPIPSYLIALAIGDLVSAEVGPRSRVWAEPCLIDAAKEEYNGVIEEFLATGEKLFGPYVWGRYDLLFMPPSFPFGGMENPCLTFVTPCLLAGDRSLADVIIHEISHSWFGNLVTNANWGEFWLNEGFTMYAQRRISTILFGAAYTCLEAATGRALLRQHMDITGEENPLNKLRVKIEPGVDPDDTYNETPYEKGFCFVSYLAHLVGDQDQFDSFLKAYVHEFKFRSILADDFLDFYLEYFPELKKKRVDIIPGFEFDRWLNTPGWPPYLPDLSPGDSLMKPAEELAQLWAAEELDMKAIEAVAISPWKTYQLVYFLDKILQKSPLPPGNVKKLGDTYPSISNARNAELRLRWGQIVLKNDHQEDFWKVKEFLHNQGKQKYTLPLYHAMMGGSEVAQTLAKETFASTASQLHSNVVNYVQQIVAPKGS
UniProt P78345: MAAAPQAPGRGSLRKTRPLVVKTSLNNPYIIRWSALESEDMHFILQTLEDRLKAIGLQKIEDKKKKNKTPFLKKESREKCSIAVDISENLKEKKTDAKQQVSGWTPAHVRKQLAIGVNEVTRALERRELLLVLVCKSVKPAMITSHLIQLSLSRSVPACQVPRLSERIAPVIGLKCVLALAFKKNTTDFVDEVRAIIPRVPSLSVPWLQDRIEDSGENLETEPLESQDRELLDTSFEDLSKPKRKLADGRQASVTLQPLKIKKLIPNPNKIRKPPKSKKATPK
UniProt P05386, whole entry, looked up: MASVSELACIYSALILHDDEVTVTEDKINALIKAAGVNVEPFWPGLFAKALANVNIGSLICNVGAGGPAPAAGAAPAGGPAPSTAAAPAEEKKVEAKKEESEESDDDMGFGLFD
UniProt Q9NQG5: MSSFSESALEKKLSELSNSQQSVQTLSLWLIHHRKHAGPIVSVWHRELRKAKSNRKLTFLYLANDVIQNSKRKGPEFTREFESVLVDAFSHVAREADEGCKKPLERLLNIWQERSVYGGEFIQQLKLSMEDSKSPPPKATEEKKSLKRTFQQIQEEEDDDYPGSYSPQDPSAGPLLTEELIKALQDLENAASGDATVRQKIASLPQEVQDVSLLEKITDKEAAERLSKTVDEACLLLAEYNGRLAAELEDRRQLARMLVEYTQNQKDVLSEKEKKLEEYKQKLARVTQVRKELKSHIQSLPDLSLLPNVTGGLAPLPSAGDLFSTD
UniProt O75818: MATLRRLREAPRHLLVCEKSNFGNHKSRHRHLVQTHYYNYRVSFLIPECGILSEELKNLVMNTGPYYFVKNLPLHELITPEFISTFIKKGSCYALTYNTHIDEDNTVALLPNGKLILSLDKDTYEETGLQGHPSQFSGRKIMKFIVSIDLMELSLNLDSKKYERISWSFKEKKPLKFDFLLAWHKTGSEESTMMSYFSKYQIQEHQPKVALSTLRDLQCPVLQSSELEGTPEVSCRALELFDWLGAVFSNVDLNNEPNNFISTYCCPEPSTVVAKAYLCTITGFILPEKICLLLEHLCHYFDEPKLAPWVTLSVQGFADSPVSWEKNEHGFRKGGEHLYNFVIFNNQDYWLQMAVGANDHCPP
UniProt P05387, whole entry, looked up: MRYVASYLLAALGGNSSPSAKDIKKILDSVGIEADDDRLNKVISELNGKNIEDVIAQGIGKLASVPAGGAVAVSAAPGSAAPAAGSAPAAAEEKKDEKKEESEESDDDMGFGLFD
UniProt Q5VZM2, whole entry, looked up: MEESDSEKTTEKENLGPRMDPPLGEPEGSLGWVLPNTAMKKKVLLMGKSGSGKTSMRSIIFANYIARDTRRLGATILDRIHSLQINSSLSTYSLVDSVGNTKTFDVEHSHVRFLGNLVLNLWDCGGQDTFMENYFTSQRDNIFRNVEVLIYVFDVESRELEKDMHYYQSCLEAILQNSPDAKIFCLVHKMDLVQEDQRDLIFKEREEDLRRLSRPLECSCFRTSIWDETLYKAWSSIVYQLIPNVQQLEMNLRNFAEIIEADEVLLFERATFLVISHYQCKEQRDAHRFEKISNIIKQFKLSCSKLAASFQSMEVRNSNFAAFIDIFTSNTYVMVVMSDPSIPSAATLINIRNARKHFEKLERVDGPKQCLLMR
UniProt P78346: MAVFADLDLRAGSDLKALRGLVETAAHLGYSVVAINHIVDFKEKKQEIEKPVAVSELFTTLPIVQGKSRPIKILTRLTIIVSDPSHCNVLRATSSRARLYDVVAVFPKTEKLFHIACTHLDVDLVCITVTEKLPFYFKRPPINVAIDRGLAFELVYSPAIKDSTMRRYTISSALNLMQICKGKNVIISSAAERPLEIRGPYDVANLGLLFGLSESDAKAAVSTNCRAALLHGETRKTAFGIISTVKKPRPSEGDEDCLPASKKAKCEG
UniProt Q9BUL9: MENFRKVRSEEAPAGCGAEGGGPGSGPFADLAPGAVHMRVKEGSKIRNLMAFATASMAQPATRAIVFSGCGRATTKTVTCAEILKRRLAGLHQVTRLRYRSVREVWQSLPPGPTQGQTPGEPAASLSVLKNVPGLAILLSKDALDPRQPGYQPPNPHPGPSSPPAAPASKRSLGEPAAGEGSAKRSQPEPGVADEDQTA
UniProt P49247: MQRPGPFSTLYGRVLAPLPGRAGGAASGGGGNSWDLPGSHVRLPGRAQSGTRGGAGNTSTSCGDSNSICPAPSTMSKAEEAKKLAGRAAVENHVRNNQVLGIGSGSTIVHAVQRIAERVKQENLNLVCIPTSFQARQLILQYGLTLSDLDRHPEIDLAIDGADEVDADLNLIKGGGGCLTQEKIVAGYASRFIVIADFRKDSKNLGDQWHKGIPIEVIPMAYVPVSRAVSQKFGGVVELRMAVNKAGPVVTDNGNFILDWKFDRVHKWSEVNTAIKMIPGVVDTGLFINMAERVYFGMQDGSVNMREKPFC
UniProt Q15418, whole entry, looked up: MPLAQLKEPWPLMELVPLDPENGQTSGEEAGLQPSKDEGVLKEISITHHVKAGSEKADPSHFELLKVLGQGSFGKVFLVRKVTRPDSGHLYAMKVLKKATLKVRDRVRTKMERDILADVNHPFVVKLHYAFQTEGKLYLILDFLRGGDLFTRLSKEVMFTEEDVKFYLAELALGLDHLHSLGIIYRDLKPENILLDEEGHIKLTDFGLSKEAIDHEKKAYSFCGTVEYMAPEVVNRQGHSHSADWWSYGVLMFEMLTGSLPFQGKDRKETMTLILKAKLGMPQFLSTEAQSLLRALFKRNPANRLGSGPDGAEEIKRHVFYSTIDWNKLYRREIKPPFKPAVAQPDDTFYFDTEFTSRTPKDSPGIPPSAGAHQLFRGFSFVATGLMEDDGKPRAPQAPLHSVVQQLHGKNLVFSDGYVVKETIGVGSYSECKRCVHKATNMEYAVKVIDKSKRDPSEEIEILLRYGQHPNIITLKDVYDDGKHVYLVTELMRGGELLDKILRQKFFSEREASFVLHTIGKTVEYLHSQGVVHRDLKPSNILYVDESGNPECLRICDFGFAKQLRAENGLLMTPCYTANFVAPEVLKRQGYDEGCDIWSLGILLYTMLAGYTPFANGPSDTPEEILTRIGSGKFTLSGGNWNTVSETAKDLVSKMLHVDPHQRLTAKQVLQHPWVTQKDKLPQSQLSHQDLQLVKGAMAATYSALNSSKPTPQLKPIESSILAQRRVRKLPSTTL
UniProt P15927: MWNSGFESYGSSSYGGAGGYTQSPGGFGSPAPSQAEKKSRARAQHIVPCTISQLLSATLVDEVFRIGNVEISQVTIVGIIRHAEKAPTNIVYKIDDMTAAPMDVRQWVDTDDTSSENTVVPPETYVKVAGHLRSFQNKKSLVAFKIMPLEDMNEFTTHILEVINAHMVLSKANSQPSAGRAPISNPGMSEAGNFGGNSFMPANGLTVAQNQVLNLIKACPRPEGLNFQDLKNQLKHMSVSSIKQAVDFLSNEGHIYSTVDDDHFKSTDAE
UniProt Q9UBF6, whole entry, looked up: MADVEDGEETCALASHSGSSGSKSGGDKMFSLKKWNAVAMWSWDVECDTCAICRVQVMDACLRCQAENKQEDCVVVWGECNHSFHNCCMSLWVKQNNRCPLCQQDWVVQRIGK

Key:
Assay in all cases: log2 fold change, soluble protein after heating vs DMSO (PISA); higher = thermal stabilisation; K562 cells, 10 uM, 30 min; active = over 0.2 and 3.5 SD of the protein, either way, in both replicates (recomputed)
[1] = compound: CC1=C(C=C(C=C1)NC(=O)C2=CC(=CC=C2)C(C)(C)C#N)NC3=CC4=C(C=C3)N=CN(C4=O)C
Method in brief: (§1)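 Soluble protein was quantified by TMTpro 16plex LC-MS/MS after channel sums were equalised. It was obtained as the supernatant after 21,000xg for 90 min from pooled aliquots of K562 cells (2×10^6 cells/mL, 10 μM compound, 30 min) heated for 3 min across 48°C-58°C and extracted in PBS with 0.5% NP-40 at 4°C. Thermal stability values are relative to control samples and come from duplicates. They are given as log2 fold changes.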

[2] = compound: CC1=C(C=C(C=C1)NC(=O)C2=CC(=CC=C2)N(C)C)NC(=O)C3=CC=C(C=C3)O
Method in brief: as §1

[3] = compound: CC1=CC=C(C=C1)SC2=C3C=C(SC3=CN=C2)C(=O)N
Method in brief: as §1

[4] = compound: CC1=NC(=CC=C1)C2=C(N=C(N2)C(C)(C)C)C3=CC4=NC=CN=C4C=C3
Method in brief: as §1

[5] = compound: CCCCN(Cc1ccc(C(=O)NO)cc1)C(=O)Nc1ccccc1 [Nexturastat A]
Method in brief: as §1

[6] = compound: CCCS(=O)(=O)Nc1ccc(F)c(C(=O)c2c[nH]c3ncc(-c4ccc(Cl)cc4)cc23)c1F [vemurafenib]
Method in brief: as §1

[7] = compound: CCCS(=O)(=O)Nc1ccc(F)c(C(=O)c2c[nH]c3ncc(Cl)cc23)c1F
Method in brief: as §1

[8] = compound: CCCc1cc(C)[nH]c(=O)c1CNC(=O)c1cc(-c2ccnc(N3CCN(C)CC3)c2)cc2c1cnn2C(C)C
Method in brief: as §1

[9] = compound: CCN(CC)Cc1ccc2cc(COC(=O)Nc3ccc(C(=O)NO)cc3)ccc2c1 [givinostat]
Method in brief: as §1

[10] = compound: CCN(CCCOc1ccc2c(Nc3cc(CC(=O)Nc4cccc(F)c4)[nH]n3)ncnc2c1)CCOP(=O)(O)O [barasertib]
Method in brief: as §1

Measured: log2 fold change

RPL22 (UniProt P35268)
inactive: [1] -0.023 | [2] 0.04 | [3] -0.083 | [4] -0.072 | [5] 0.247 | [6] -0.063 | [7] -0.015 | [8] 0.109 | [9] 0.029 | [10] -0.058

RRAGC (UniProt Q9HB90)
inactive: [1] 0.005 | [2] 0.003 | [3] 0.017 | [4] 0.008 | [5] -0.07 | [6] -0.027 | [7] 0.047 | [8] -0.048 | [9] 0.052 | [10] -0.011

RPL10 (UniProt P27635)
inactive: [1] 0.035 | [2] -0.007 | [3] -0.033 | [4] -0.151 | [5] 0.327 | [6] -0.239 | [7] -0.111 | [8] 0.223 | [9] -0.01 | [10] -0.169

RO60 (UniProt P10155)
inactive: [1] -0.046 | [2] 0 | [3] -0.005 | [4] 0.046 | [5] -0.146 | [6] -0.037 | [7] 0.006 | [8] -0.046 | [9] -0.037 | [10] 0.004

RPL4 (UniProt P36578)
inactive: [1] 0.06 | [2] 0 | [3] -0.071 | [4] -0.192 | [5] 0.348 | [6] -0.291 | [7] -0.093 | [8] 0.317 | [9] 0.165 | [10] -0.199

ROCK1 (UniProt Q13464)
inactive: [1] 0.003 | [2] -0.073 | [3] -0.016 | [4] -0.037 | [5] 0.093 | [6] 0.052 | [7] 0.036 | [8] -0.019 | [9] 0.031 | [10] 0.021

RPL8 (UniProt P62917)
inactive: [1] -0.05 | [2] 0.002 | [3] -0.091 | [4] -0.164 | [5] 0.391 | [6] -0.316 | [7] -0.087 | [8] 0.201 | [9] 0.047 | [10] -0.267

RPL18 (UniProt Q07020)
inactive: [1] -0.002 | [2] 0 | [3] -0.099 | [4] -0.2 | [5] 0.381 | [6] -0.29 | [7] -0.132 | [8] 0.195 | [9] 0.177 | [10] -0.228

RNPEP (UniProt Q9H4A4)
inactive: [1] 0.032 | [2] -0.024 | [3] 0.002 | [4] 0.023 | [5] -0.023 | [6] 0.058 | [7] 0.052 | [8] -0.013 | [9] -0.112 | [10] 0.036

RPS9 (UniProt P46781)
inactive: [1] 0.039 | [2] 0 | [3] -0.073 | [4] -0.016 | [5] 0.104 | [6] -0.107 | [7] -0.066 | [8] 0.087 | [9] 0.038 | [10] -0.114

7 neighbouring records from above:
RPL22 (UniProt P35268)
inactive: [1] -0.023 | [2] 0.04 | [3] -0.083 | [4] -0.072 | [5] 0.247 | [6] -0.063 | [7] -0.015 | [8] 0.109 | [9] 0.029 | [10] -0.058

RRAGC (UniProt Q9HB90)
inactive: [1] 0.005 | [2] 0.003 | [3] 0.017 | [4] 0.008 | [5] -0.07 | [6] -0.027 | [7] 0.047 | [8] -0.048 | [9] 0.052 | [10] -0.011

RPL10 (UniProt P27635)
inactive: [1] 0.035 | [2] -0.007 | [3] -0.033 | [4] -0.151 | [5] 0.327 | [6] -0.239 | [7] -0.111 | [8] 0.223 | [9] -0.01 | [10] -0.169

RO60 (UniProt P10155)
inactive: [1] -0.046 | [2] 0 | [3] -0.005 | [4] 0.046 | [5] -0.146 | [6] -0.037 | [7] 0.006 | [8] -0.046 | [9] -0.037 | [10] 0.004

RPL4 (UniProt P36578)
inactive: [1] 0.06 | [2] 0 | [3] -0.071 | [4] -0.192 | [5] 0.348 | [6] -0.291 | [7] -0.093 | [8] 0.317 | [9] 0.165 | [10] -0.199

ROCK1 (UniProt Q13464)
inactive: [1] 0.003 | [2] -0.073 | [3] -0.016 | [4] -0.037 | [5] 0.093 | [6] 0.052 | [7] 0.036 | [8] -0.019 | [9] 0.031 | [10] 0.021

RPL8 (UniProt P62917)
inactive: [1] -0.05 | [2] 0.002 | [3] -0.091 | [4] -0.164 | [5] 0.391 | [6] -0.316 | [7] -0.087 | [8] 0.201 | [9] 0.047 | [10] -0.267

Remaining list, next part

RPP38 (UniProt P78345)
inactive: [1] -0.011 | [2] 0.008 | [3] -0.07 | [4] -0.01 | [5] -0.007 | [6] -0.067 | [7] -0.032 | [8] 0.013 | [9] -0.008 | [10] -0.022

RPL30 (UniProt P62888)
inactive: [1] 0.017 | [2] -0.018 | [3] -0.068 | [4] -0.216 | [5] 0.371 | [6] -0.229 | [7] -0.047 | [8] 0.202 | [9] 0.07 | [10] -0.184

RPLP1 (UniProt P05386)
inactive: [1] -0.109 | [2] 0.041 | [3] -0.167 | [4] -0.279 | [5] 0.506 | [6] -0.235 | [7] -0.048 | [8] 0.268 | [9] 0.108 | [10] -0.12

RPRD1B (UniProt Q9NQG5)
inactive: [1] 0.007 | [2] -0.021 | [3] -0.029 | [4] 0.101 | [5] -0.054 | [6] 0.05 | [7] 0.07 | [8] -0.057 | [9] -0.064 | [10] 0.007

RPP40 (UniProt O75818)
inactive: [1] -0.029 | [2] -0.007 | [3] -0.013 | [4] 0.01 | [5] 0.013 | [6] -0.046 | [7] -0.031 | [8] 0.009 | [9] 0.003 | [10] -0.031

RPL7 (UniProt P18124)
inactive: [1] 0.047 | [2] 0.003 | [3] -0.082 | [4] -0.246 | [5] 0.442 | [6] -0.308 | [7] -0.121 | [8] 0.248 | [9] 0.219 | [10] -0.211

RRM1 (UniProt P23921)
inactive: [1] -0.021 | [2] 0.005 | [3] 0.004 | [4] 0.026 | [5] -0.093 | [6] -0.007 | [7] 0.026 | [8] -0.061 | [9] -0.03 | [10] 0.006

RPLP2 (UniProt P05387)
inactive: [1] -0.054 | [2] 0 | [3] -0.109 | [4] -0.161 | [5] 0.338 | [6] -0.056 | [7] -0.088 | [8] 0.221 | [9] 0.038 | [10] -0.151

RRAGB (UniProt Q5VZM2)
inactive: [1] 0.013 | [2] 0.018 | [3] 0.011 | [4] -0.01 | [5] -0.071 | [6] 0.001 | [7] 0.028 | [8] -0.023 | [9] -0.044 | [10] -0.004

RPL27A (UniProt P46776)
inactive: [1] -0.023 | [2] 0.022 | [3] -0.196 | [4] -0.188 | [5] 0.329 | [6] -0.209 | [7] -0.203 | [8] 0.16 | [9] 0.053 | [10] -0.148

RPP30 isoform 2 (UniProt P78346)
inactive: [1] 0.076 | [2] -0.01 | [3] -0.029 | [4] -0.016 | [5] 0.068 | [6] -0.108 | [7] -0.006 | [8] 0.066 | [9] 0.01 | [10] -0.007

RPS12 (UniProt P25398)
inactive: [1] 0.036 | [2] 0.006 | [3] -0.013 | [4] -0.027 | [5] 0.038 | [6] -0.057 | [7] -0.035 | [8] 0.073 | [9] -0.035 | [10] -0.059

RPP25 (UniProt Q9BUL9)
inactive: [1] 0.011 | [2] 0.033 | [3] -0.007 | [4] 0.113 | [5] 0.098 | [6] -0.083 | [7] -0.036 | [8] -0.083 | [9] 0.003 | [10] -0.006

RPIA (UniProt P49247)
inactive: [1] -0.015 | [2] 0.01 | [3] 0.007 | [4] 0.007 | [5] -0.034 | [6] -0.013 | [7] -0.001 | [8] -0.089 | [9] -0.016 | [10] 0.001

RPS6KA1 isoform 2 (UniProt Q15418)
inactive: [1] -0.016 | [2] -0.187 | [3] 0.033 | [4] 0.078 | [5] 0.004 | [6] 0.016 | [7] 0.046 | [8] 0.071 | [9] -0.141 | [10] 0.029

RPL26 (UniProt P61254)
inactive: [1] 0.097 | [2] 0.205 | [3] -0.108 | [4] -0.067 | [5] 0.354 | [6] -0.198 | [7] -0.205 | [8] 0.408 | [9] -0.036 | [10] -0.192

RPL13 (UniProt P26373)
inactive: [1] 0.013 | [2] -0.001 | [3] -0.073 | [4] -0.192 | [5] 0.407 | [6] -0.33 | [7] -0.092 | [8] 0.222 | [9] 0.139 | [10] -0.166

RPA2 isoform 3 (UniProt P15927)
inactive: [1] 0.018 | [2] 0.006 | [3] 0.016 | [4] 0.004 | [5] 0.033 | [6] -0.011 | [7] -0.064 | [8] -0.015 | [9] 0.028 | [10] -0.009

RPL35A (UniProt P18077)
inactive: [1] 0.052 | [2] -0.013 | [3] -0.065 | [4] -0.162 | [5] 0.319 | [6] -0.269 | [7] -0.13 | [8] 0.2 | [9] 0.189 | [10] -0.206

RNF7 (UniProt Q9UBF6)
inactive: [1] -0.016 | [2] -0.038 | [3] -0.055 | [4] -0.008 | [5] -0.039 | [6] 0.037 | [7] 0.054 | [8] -0.065 | [9] -0.057 | [10] -0.032
